Measurements reported in PubChem BioAssay AID1053208 (Peter MacCallum Cancer Centre, 2014).
Aim: 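Genes whose silencing cuts survival of bone tumour cells only with doxorubicin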 (primary screen). Cells: mouse osteosarcoma cells, early-passage culture from an engineered mouse model of fibroblastic bone tumour. Reagents: siRNA pool against mouse genes, 40 nM. Timing: about 120 h (48 h before drug, then 72 h with drug). Conditions: doxorubicin 100 nM for 72 h, roughly 30-40% inhibitory dose. Detection: 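Luminescent ATP signal taken as viability with or without 100 nM doxorubicin for 72 h; mean of two wells set against non-targeting siRNA and turned into robust z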. Reading the numbers: viability z-score with doxorubicin and doxorubicin viability vs non-targeting: higher = more viable cells under doxorubicin; viability z-score without drug: higher = more viable cells with knock-down alone; z-score of drug to no-drug ratio: higher = less drug sensitisation by knock-down. Active means: 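a pool counts as active when its viability z-score with doxorubicin is -2 or below and its z-score without drug lies between -2 and 2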.
Shown is one part, drawn at random, of about 17,000 reagents. Over the whole deposit, 788 (4.7%) are marked active. 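Calls rest on z-score classes alone; an extra cut-off of viability at most 70% of control was not applied to them.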

no.	target gene	combined z-score class	viability z-score with doxorubicin	viability z-score without drug	z-score of drug to no-drug ratio	doxorubicin viability vs non-targeting	activity call
1	Pcgf6	no change with or without drug	-1.12	0.17	-1.12	0.84	inactive
2	Ffar3	no change with or without drug	-0.34	1.69	-1.24	0.91	inactive
3	Tcn2	no change with or without drug	-1.69	-0.51	-1.35	0.79	inactive
4	Tmem176a	no change with or without drug	0	0.84	-0.45	0.94	inactive
5	Pias2	no change with or without drug	0.34	-0.51	0.79	0.97	inactive
6	Itih1	low cell count with doxorubicin only	-2.92	1.18	-3.48	0.68	active
7	Wwc2	no change with or without drug	0.9	-0.84	1.69	1.02	inactive
8	Dedd	no change with or without drug	0.9	-1.18	2.02	1.02	inactive
9	Or51a25	no change with or without drug	1.57	0.84	1.12	1.08	inactive
10	Atp5mg	no change with or without drug	-0.79	-1.01	0	0.87	inactive
11	Rnf121	low cell count with doxorubicin only	-3.15	-1.35	-2.47	0.66	active
12	Ppp1r1b	no change with or without drug	1.35	0.67	1.01	1.06	inactive
13	Dcaf12l2	high cell count without drug only	-0.45	2.36	-1.69	0.9	inactive
14	Rad1	no change with or without drug	0.67	-0.17	0.9	1	inactive
15	Ncapg2	no change with or without drug	0.34	-0.17	0.56	0.97	inactive
16	Tmbim6	no change with or without drug	-0.45	-0.51	0	0.9	inactive
17	H2-Q6	no change with or without drug	-1.35	-0.51	-1.01	0.82	inactive
18	Cep55	low cell count with doxorubicin only	-2.92	-1.35	-2.25	0.68	active
19	Rps6ka2	no change with or without drug	0.11	-0.17	0.34	0.95	inactive
20	Tm2d2	no change with or without drug	0.67	0.34	0.56	1	inactive
21	Wls	high cell count without drug only	1.01	2.87	-0.67	1.03	inactive
22	Arid3b	no change with or without drug	-1.12	-0.84	-0.56	0.84	inactive
23	Zfp607b	no change with or without drug	-0.9	-0.17	-0.79	0.86	inactive
24	Fmo5	no change with or without drug	0.45	0.84	0	0.98	inactive
25	Scn8a	no change with or without drug	0	0.51	-0.22	0.94	inactive
26	Or1j17	no change with or without drug	-0.45	-1.52	0.79	0.9	inactive
27	Spink10	no change with or without drug	0.34	0.34	0.22	0.97	inactive
28	Dhrs13	no change with or without drug	0.11	-0.17	0.34	0.95	inactive
29	Api5	low cell count with doxorubicin only	-2.59	-0.84	-2.14	0.71	active
30	Rpl7	low cell count with and without drug	-6.74	-7.42	-3.48	0.34	inactive
31	Zfp414	low cell count with doxorubicin only	-2.02	0.17	-2.14	0.76	active
32	Cfap20	no change with or without drug	0.22	0.67	-0.11	0.96	inactive
33	Slc17a8	no change with or without drug	-0.56	-0.51	-0.11	0.89	inactive
34	Adar	no change with or without drug	-0.22	1.85	-1.24	0.92	inactive

Laid out differently: 4 of the entries above
target gene,combined z-score class,viability z-score with doxorubicin,viability z-score without drug,z-score of drug to no-drug ratio,doxorubicin viability vs non-targeting,activity call
Ncapg2,no change with or without drug,0.34,-0.17,0.56,0.97,inactive
Tmbim6,no change with or without drug,-0.45,-0.51,0,0.9,inactive
H2-Q6,no change with or without drug,-1.35,-0.51,-1.01,0.82,inactive
Cep55,low cell count with doxorubicin only,-2.92,-1.35,-2.25,0.68,active
